What was measured:
[1] = solid-phase peptide synthesis; details: for final LC-MS purity: LC-MS chromatograms, XTerra MS C18 column
[2] = general procedure: Fmoc solid-phase peptide synthesis; 2-ClTrtCl; HATU/iPr2EtN (HATU or HCTU/HOAt/TMP for glycosylated Ser and 21Cys); details: whole synthesis, scale 0.1 mmol
[3] = general procedure: Fmoc solid-phase peptide synthesis; 2-ClTrtCl resin; HATU/iPr2EtN (HATU or HCTU/HOAt/TMP for glycosylated Ser and 21Cys); details: whole synthesis, scale 0.1 mmol
[4] = general procedure: Fmoc solid-phase peptide synthesis; HMPB-aminomethyl polystyrene; HATU/iPr2EtN (HATU or HCTU/HOAt/TMP for glycosylated Ser and 21Cys); details: whole synthesis
[5] = general procedure: Fmoc solid-phase peptide synthesis; 2-ClTrtCl-polystyrene; HATU/iPr2EtN (HATU or HCTU/HOAt/TMP for glycosylated Ser and 21Cys); details: whole synthesis, scale of the general procedure 0.1 mmol (0.2 mmol for peptide 6)
[6] = whole synthesis, scale of the general procedure 0.1 mmol (0.2 mmol for peptide 6)

H2N-1Lys-4Trp(CHO)-6Trp(CHO)-11Met-COSCH2CH2CO-(Lys)5-COOH
isolated mass ([1]; whole synthesis): 142 mg
final LC-MS purity [1, 6]: 99%
isolated yield [1, 6]: 33%

H2N-1Lys-18Cys(β-GlcNAc(OAc)3)-43Cys(β-GlcNAc(OAc)3)-COOH
step yield ([1]; coupling step): 44% yield
final LC-MS purity ([1]; coupling step): 99% purity

H2N-1Lys-18Cys(β-GlcNAc)-43Cys(β-GlcNAc)-COOH
step yield ([1]; late stage modification step): 52% yield
final LC-MS purity ([1]; late stage modification step): 98% purity

H2N-1Lys-18Ser(β-GlcNAc(OAc)3)-43Ser(β-GlcNAc(OAc)3)-COOH
step yield ([1]; coupling step): 40% yield
final LC-MS purity ([1]; coupling step): 97% purity

H2N-1Lys-18Ser(β-GlcNAc)-43Ser(β-GlcNAc)-COOH
step yield ([1]; late stage modification step): 31% yield
final LC-MS purity ([1]; late stage modification step): 98% purity

H2N-1Lys-18Ser(β-GlcNAc)-D-27His-43Cys(β-GlcNAc)-COOH
step yield ([1]; late stage modification step): 52% crude yield

H2N-1Lys-18Ser(β-GlcNAc)-L-27His-43Cys(β-GlcNAc)-COOH
step yield ([1]; late stage modification step): 57% crude yield

H2N-12Cys-18Cys(β-GlcNAc(OAc)3)-43Cys(β-GlcNAc(OAc)3)-COOH
final LC-MS purity [1, 6]: 98% purity
isolated yield [1, 6]: 14% yield
isolated mass [2]: 57.7 mg

H2N-12Cys-18Ser(β-GlcNAc(OAc)3)-43Ser(β-GlcNAc(OAc)3)-COOH
final LC-MS purity [1, 6]: 98% purity
isolated yield [1, 6]: 17% yield
isolated mass [2]: 70 mg

H2N-12Cys-18Ser(β-GlcNAc(OAc)3)-D-27His-43Cys(β-GlcNAc(OAc)3)-COOH
step yield ([1]; coupling step): 20% yield
final LC-MS purity ([1]; coupling step): 98% purity

H2N-12Cys-18Ser(β-GlcNAc(OAc)3)-L-27His-43Cys(β-GlcNAc(OAc)3)-COOH
step yield ([1]; coupling step): 22% yield
final LC-MS purity ([1]; coupling step): 98% purity

H2N-12Thz-18Ser(β-GlcNAc(OAc)3)-27His-COSBn
difficulty met [1, 6]: changing the linker to 2-chlorotrityl linker reduced this to ca. 20%
crude mass [3]: 89.mg
crude yield [3]: 41%
isolated mass [4]: 50.1 mg
final LC-MS purity ([4]; LC-MS chromatograms, XTerra MS C18 column, scale of the general procedure 0.1 mmol (0.2 mmol for peptide 6)): 98%
isolated yield ([4]; based on 0.1 mmol, scale 0.1 mmol): 23%

H2N-28Cys-43Cys(β-GlcNAc(OAc)3)-COOH
final LC-MS purity [1, 6]: 98% purity
isolated yield [1, 6]: 29% yield
isolated mass [2]: 60 mg

[^12Cys–^18Ser(β-GlcNAc(OAc)3)–^43Cys(β-GlcNAc(OAc)3)]
crude LC-MS purity ([5]; LC-MS chromatograms, XTerra MS C18 column): >73%
crude yield [5]: 30%

^18Ser(GlcNAc) to Cys(GlcNAc)
step yield ([1]; coupling step): 44%
oxidative folding yield ([1]; oxidative folding step): 31% yield
final LC-MS purity ([1]; oxidative folding step): 99% purity

^43Cys(GlcNAc) to Ser(GlcNAc)
step yield ([1]; coupling step): 40%
oxidative folding yield ([1]; oxidative folding step): 29% yield
final LC-MS purity ([1]; oxidative folding step): 99% purity

glycocin F
oxidative folding yield ([1]; oxidative folding step): 32%
final LC-MS purity ([1]; oxidative folding step): 99% purity

— publication PMC5890784 (Chemical Science, 2018)
